This assay has as its target wild-type yeast microtubules (polymerized wild-type yeast αβ-tubulin) (S. cerevisiae) (UniProt P09733+P02557). Nature of the assay: TIRF microscopy of Zyg-9-mCherry on stabilized microtubules; 50 nM Zyg-9-mCherry on unlabeled GTPγS-stabilized yeast microtubules, without or with 5 μM bovine tubulin as competing binding partner; both purified.

The chains behind the UniProt entries cited, without tags or fusion partners. Where a name states a change or a piece, a line headed by the entry shows the natural chain unless it says otherwise.
UniProt P09733: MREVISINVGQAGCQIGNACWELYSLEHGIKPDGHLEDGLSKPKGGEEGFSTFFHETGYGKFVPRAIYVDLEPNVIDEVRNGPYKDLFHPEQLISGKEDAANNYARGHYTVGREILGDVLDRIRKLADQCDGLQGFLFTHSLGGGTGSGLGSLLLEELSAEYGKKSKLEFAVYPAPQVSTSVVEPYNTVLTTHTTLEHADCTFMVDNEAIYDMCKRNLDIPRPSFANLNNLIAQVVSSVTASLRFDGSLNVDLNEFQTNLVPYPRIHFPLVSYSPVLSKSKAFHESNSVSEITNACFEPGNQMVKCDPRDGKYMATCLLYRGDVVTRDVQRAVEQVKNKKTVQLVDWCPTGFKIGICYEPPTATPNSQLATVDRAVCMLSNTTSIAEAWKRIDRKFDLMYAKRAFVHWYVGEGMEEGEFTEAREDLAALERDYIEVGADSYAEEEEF
UniProt P02557: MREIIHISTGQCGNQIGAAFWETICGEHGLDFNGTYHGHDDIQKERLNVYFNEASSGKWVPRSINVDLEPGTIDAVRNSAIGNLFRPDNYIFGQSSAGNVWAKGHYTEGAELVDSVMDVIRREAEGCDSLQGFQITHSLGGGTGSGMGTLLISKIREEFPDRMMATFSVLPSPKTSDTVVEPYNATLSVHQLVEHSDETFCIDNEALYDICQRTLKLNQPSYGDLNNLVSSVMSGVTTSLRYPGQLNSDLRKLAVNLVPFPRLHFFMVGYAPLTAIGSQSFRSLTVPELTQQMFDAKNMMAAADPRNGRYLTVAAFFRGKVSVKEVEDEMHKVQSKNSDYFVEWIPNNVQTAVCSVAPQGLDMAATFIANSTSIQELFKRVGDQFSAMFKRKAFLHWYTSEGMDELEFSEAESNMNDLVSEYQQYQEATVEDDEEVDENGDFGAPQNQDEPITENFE

Drawing on paper PMC5999394, “Design principles of a microtubule polymerase” (eLife, 2018), this text covers binding for 1 molecule.

No constants are given. Whether binding was seen depends on the method and setting. Some binding calls cover weakened binding; strength is not graded here. Tags and fused reporters may be left off the sequences shown.

B1: mCherry-tagged Zyg-9 (protein, UniProt G5EEM5 1-1415)
chain: MSNWDYLDEVDILPKLPPNFDELRESKKWQERKEALEALLKVLTDNERLSTKASYAELIGHLQMVLAKDANINCQALAAKCIGKFATGLRAKFSSFAGPLLPVIFEKMKEKKPMLREPLVDCSNEVGRTMQSLETGQEDILAALAKPNPQIKQQTALFVARQLDLVVPAKQPKGFIKAVVPVFGKLTGDADQDVREASLQGLGAVQRIIGDKNVKNLLGDASSDEGKMKKIGEYAEKSTASFAEEQAKNAPPVAPTSSTPSASAASGDPSGGTATAVVSSGAPVAEADPWDFLDAFDVLSKMPDGFDTNIESKKWQERKEALEGLLQLITANPKLDPKANYGALVERLQKVLEKDANINVAALAANCITGIANGLRTKFQPFAVSVTPIIFEKFKEKKPTLRDPLVACIDAVVATTNLEAVGEIVLAALGKPNPSIKTQTDLFLQRCFMKLNSQTMPKKTLKTLIPSLIKHSGDSDSEVREASYAAMGAMMRAIGEKPSLQLLADIASDNLKMSKIKEFHQKALDEAGPAEIAEMVKSIHKADAPPAAAPPKKTAPPKKQPEDEEVVEEEDEPLKPPPGDKKKKVPVKENEENEPPVVAPKAELLLSDNEDKKQRIKEEKQLKLVKWNFQAPTDEHISQLQTLLGNQAKVSLMSQLFHKDFKQHLAALDSLVRLADTSPRSLLSNSDLLLKWCTLRFFETNPAALIKVLELCKVIVELIRDTETPMSQEEVSAFVPYLLLKTGEAKDNMRTSVRDIVNVLSDVVGPLKMTPMLLDALKSKNARQRSECLLVIEYYITNAGISPLKSLSVEKTVAPFVGDKDVNVRNAAINVLVACFKFEGDQMWKAAGRMADKDKSLVEERIKRTGVKPGSGVVTSPPTGGPKILVPQQQGSVVRRPASRSRTREPEPEEVQSDTFTIRQDTMPPKTSSRYALRDDVFSSAMGRLDGTQVITPPQPVNGWSNNTFQMKRTNSSSSISSIDTSDQIQRSINNISSSLADVAQDAMFQVTYVLNQPEQRHLVDRRADLVFRASAAQLDLVIEEFNAGRDVSGTMDACTQMLFILMGGVETEHGLEPLNASPDTVKAIISSVLRCIIQIGNTESGYGMARSLNRLAMRLIYRVELSNLLCGLILAMTESLQMNTGITELVSKLSSKWCDELEKRRAQLRASDIVDSFNAFYVCALTELKMDISDSHILIVDNYLERVILQQGDVVLDAARRLSRPHMHLTSMINKILQMMRERKIDPIMPGTLEARMPQEDEAVVVRSGVQVSIDNILRDTSMAVKHIEQLNILIASSDRSWNEYMEYLKNNPMGELIKELVGECSRKKRIDFNLSHVVKSSMAVFKAMAATGPVQEEGRITPTDINRMDTMIVGTPLSRGDATITRARGNMIRPKRTTLSRDQMANIRHTLDRVKNH
For the molecule B1, the binding entry is “binds”.
